Library screen at single concentrations

The values are deposited in ChEMBL (CHEMBL3988442, “University of Dundee, Small-Polar-MMV Screening Library” (2021)).

Mtb glucose medium: 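Whole-cell growth test on Mycobacterium tuberculosis, read after 3 days in glucose-containing 7H9 medium; the read-out is not stated. Compounds at 500 µM. The record gives no direction; compounds that gave an IC50 in retests scored well above the rest, so higher reads as more growth inhibition. Size under these conditions: about 18,000 compounds, about 1,400 of them at 50% or above in at least one test.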
Mtb cholesterol medium: 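Phenotypic screen: M. tuberculosis growth, cholesterol and DPPC medium, 4 days; the read-out is not stated. Concentration: 500 µM. Direction is inferred from retests: higher values go with more growth inhibition. Of about 18,000 compounds tested this way, about 900 (5%) reached 50% or more in at least one test.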

Values are the deposited “Percent Effect”, in %. How 0% and 100% were set is not recorded. Most values in the screen are low, and negative values occur. Compounds were drawn at random from those tested, without regard to their results.

| compound | Mtb glucose medium | Mtb cholesterol medium |
|---|---|---|
| `O=C(CCc1nc2ccccc2[nH]1)N1CCOCC1` | 5.627% | 0.9999% |
| `CC(=O)c1cc(C(=O)NCCN(C)S(C)(=O)=O)cs1` | 33.39% | 9.811% |
| `CCC(=O)NCC(=O)N1CCn2cccc2C1C` (centres undefined) | -9.434% | -19.94% |
| `COCC(=O)N1CCC2(CC1)OCCO2` | 50.57% | -20.43% |
| `Cc1nc(N)sc1C(=O)N1C[C@@H](N(C)C)[C@H](C(C)C)C1` | 19.75% | 12.7% |
| `OCCNC1CCOCC1` | 2.458% | -7.234% |
| `Cc1cc(N2CCS(=O)(=O)CC2)nc2ccccc12` | -2.51% | -1.277% |
| `CN(CC(=O)Nc1c(Cl)cccc1Cl)S(N)(=O)=O` | -17.08% | -27.9% |
| `O=C(C1CC1)N1CCCC(CN2CCOCC2)CC1` (centres undefined) | 8.394% | -3.067% |
| `O=C(CCC(F)(F)F)NCCc1cnccn1` | 17.69% | 14.42% |
| `Nc1ccnc(S(N)(=O)=O)c1` | -11.97% | 10.9% |
| `COCC(C)(CCO)NCc1cccc(F)c1` (centres undefined) | 7.063% | 3.148% |
| `O=C(COC1CCCC1)NC1CCc2nccn2C1` (centres undefined) | -6.513% | -6.506% |
| `CC(CSc1n[nH]c(-c2ccccn2)n1)CS(C)(=O)=O` (centres undefined) | 30.78% | 20.7% |
| `CCCOC(C)CN` (centres undefined) | 9.294% | 5.271% |
| `COc1cccc(S(=O)(=O)CCN2CCCC2CO)c1` (centres undefined) | -1.885% | 65.05% |
| `CNC(=O)c1c(C)cccc1NCCCOC` | -5.608% | -9.582% |
| `N#Cc1ccc(S(=O)(=O)N[C@@H]2CCOC[C@H]2O)cc1` | -7.935% | 4.299% |
| `CN(C)c1nccc(CNc2ccc(C#N)nc2)n1` | 59.65% | 63.11% |
| `CC(=O)NCCC(=O)N(C)Cc1noc(C(C)C)n1` | 10.64% | 8.141% |
| `O=S(=O)(CCN1CC[C@@H](O)C1)c1cccc(Br)c1` | 93.1% | 87.19% |
| `Cc1ccc(C(=O)NCCSCCCO)cc1` | -0.5507% | -7.545% |
| `CCc1nc(C)cc(N)n1` | -2.476% | -6.413% |
| `CC(C)=CCN1CCC(N)CC1` | 12.24% | 8.793% |
| `COc1ccc(Cl)cc1-n1nnc(C(N)=O)c1N` | 40.05% | 14.25% |
| `O=C1CCN(C(=O)c2cnsn2)c2ccccc2N1` | -2.258% | -1.264% |
| `CSc1ccc(NC(=O)NCCCNC(C)=O)cc1` | 14.52% | -0.9324% |
| `Cc1cc(C)cc(OCC(=O)N2CCNC(=O)C2)c1` | 23.14% | 5.43% |
| `Cc1cc(C)c(C)c(C(=O)N2CC(O)C2)c1C` | 12.73% | 11.08% |
| `COCCNC(=O)CN(C)Cc1ccc(C)o1` | 22.02% | 24.84% |
| `Cc1cc(NC(=O)CCn2ccnc2)no1` | -6.794% | -8.036% |
| `CS(=O)(=O)Nc1ccc(OCCN)cc1` | 0.8351% | 6.348% |
| `CCCn1cc(NC(=O)C2CCCN2)ccc1=O` (centres undefined) | -3.376% | 4.25% |
| `Cc1nscc1C(=O)Nc1ccc(C(N)=O)cc1F` | 2.592% | 11.65% |
| `Cc1nc(C)n(C(C)CC(=O)Nc2cccnc2)n1` (centres undefined) | -0.7261% | -17.94% |
| `COCCCNC(=O)CN1CCn2cccc2C1C` (centres undefined) | -14.62% | -26.4% |
| `CN1CCCC(N)c2ccccc21` (centres undefined) | 0.06477% | -2.027% |
| `NC(=O)CC1CCCNC1` (centres undefined) | 8.45% | 3.614% |
| `O=C(C1CCNCC1)N1CCCC1` | -8.798% | -19.58% |
| `OCCCSCCNc1ncnc2sccc12` | 29.73% | 18.68% |
| `CNC(=O)CCC(C)(C)NC(=O)c1cnc(C)c(C)c1` | -4.996% | -0.1976% |
| `Cc1cc(=O)cc(C(=O)N2CCC3(CCNCC3)C2)o1` | -2.527% | 0.9438% |
| `CNS(=O)(=O)c1c[nH]cn1` | -0.2619% | -9.029% |
| `N#Cc1ccc(CN2CCC(N)C2=O)cc1` (centres undefined) | 13.01% | -2.662% |
| `Cc1ccsc1C(=O)Nc1cnn(CC(N)=O)c1` | 12.26% | -2.321% |
| `O=C1CCN(Cc2ccc(OC(F)F)c(Cl)c2)CCN1` | 47.62% | 33.78% |
| `CN(C)CCOC1CCNC1` (centres undefined) | 6.693% | 5.36% |
| `CCCC(=O)N1CCCC1C(=O)Nc1cnccn1` (centres undefined) | -17.68% | -17.59% |
| `O=C(c1cc(Cl)c[nH]c1=O)N(Cc1nccs1)C1CC1` | 9.302% | -6.225% |
| `Cc1nc(CCNC(=O)CNC(=O)N(C)C)sc1C` | -10.78% | -10.98% |
| `C[C@@H](CO)CCNc1cc(C2CC(N)C2)ncn1` (some centres undefined) | 5.604% | -5.664% |
| `CCCN(CC(=O)OC)S(=O)(=O)CCCC#N` | 2.256% | -10.16% |
| `Cc1ccc(NC(=O)CN2CCCC2)cc1` | 27.98% | 36.09% |
| `CCC(NC(=O)CCC(=O)OC)c1ccccc1` (centres undefined) | 33.05% | 16.92% |
| `N#Cc1ncc(Cl)cc1Cl` | 10.43% | 4.265% |
| `O=C(CCNC(=O)NC1CCSCC1)NC1CCCC1` | 2.619% | -1.452% |
| `CC(C)NC(=O)N1CCCC(S(C)(=O)=O)C1` (centres undefined) | -7.094% | 5.631% |
| `COC(=O)c1cnc(O)cn1` | 9.898% | 6.349% |
| `CC(C)(C)c1nc(CN2CCn3ccnc3C2)no1` | 16.98% | 10.67% |
| `CC(C)C(=O)Nc1ccccc1CN(C)C` | -4.334% | -4.882% |
| `CS(=O)(=O)c1ccc(OCC(=O)c2ccccc2)cc1` | 43.55% | 27.89% |
| `CCn1ncnc1CN1CCCC1c1ccccn1` (centres undefined) | 33.73% | 18.6% |
| `CCSc1nc(N)c(C#N)cc1C#N` | 14.93% | 19.24% |
| `COc1ccc(CSc2nnnn2C)c(Br)c1OC` | -20.77% | -28.56% |
| `COC(C(=O)NC1(C)CCOCC1)c1ccccc1` (centres undefined) | 11.84% | 0.3702% |
| `CCn1ccnc1C1CCCN(CCC(N)=O)C1` (centres undefined) | -3.438% | -3.225% |
| `CC(CN)N(C)Cc1ccccc1` (centres undefined) | 33.09% | 7.103% |
| `Cc1nn(CCO)c(NC(C)c2nccs2)c1C` (centres undefined) | 8.143% | 3.74% |
| `Nc1cnc(Br)cn1` | -0.5834% | 39.1% |
| `Cc1ccsc1CN1CCc2n[nH]c(=O)n2CC1` | 20.44% | 14.41% |
| `CCN(CC)S(=O)(=O)CC(=O)Nc1ccc(F)c(C)c1` | 58.79% | 45% |
| `COc1cc(CNC(C)C)cc(Br)c1OCC(N)=O` | 1.931% | 1.027% |
| `CCn1cc(S(=O)(=O)NCc2ccccc2F)cn1` | 27.57% | 15.89% |
| `O=C1CCCCC1c1ccoc1` (centres undefined) | -21.83% | -60.69% |
| `COC(=O)CSc1ccccc1C(=O)OC` | 34.33% | 27.52% |
| `CCC(=O)Nc1ccccc1C(=O)N1CCN(C)CC1` | 10.74% | 14.93% |
| `Cc1ccc(C(=O)N(CC2CCOC2)C2CC2)c(=O)[nH]1` (centres undefined) | 3.121% | 5.805% |
| `Cc1cccc(C)c1NC(=O)CN` | 9.48% | 11.28% |
| `COCc1cccc(C(=O)NCC[C@@H]2CCCN2)c1` | 18.55% | 10.22% |
| `COc1ccc(C(=O)N(C)Cc2ncc[nH]2)cc1O` | 27.82% | 10.94% |
| `Cc1nc(CN2CCN(CC3(O)CCNC3)CC2)cs1` (centres undefined) | -13.89% | -15.2% |

Once more, the final 5:

- Cc1ccc(C(=O)N(CC2CCOC2)C2CC2)c(=O)[nH]1 (centres undefined) : Mtb glucose medium: 3.121%; Mtb cholesterol medium: 5.805%
- Cc1cccc(C)c1NC(=O)CN : Mtb glucose medium: 9.48%; Mtb cholesterol medium: 11.28%
- COCc1cccc(C(=O)NCC[C@@H]2CCCN2)c1 : Mtb glucose medium: 18.55%; Mtb cholesterol medium: 10.22%
- COc1ccc(C(=O)N(C)Cc2ncc[nH]2)cc1O : Mtb glucose medium: 27.82%; Mtb cholesterol medium: 10.94%
- Cc1nc(CN2CCN(CC3(O)CCNC3)CC2)cs1 (centres undefined) : Mtb glucose medium: -13.89%; Mtb cholesterol medium: -15.2%